According to PubChem BioAssay AID1671190 (National Center for Advancing Translational Sciences (NCATS), 2021):
Values joined by “and” are separate entries in the source; they are usually repeats but may differ in a detail not shown here. Equal values may be shown once. Out of some 580,000 compounds screened, about 6,100 (1.1%) were called active. Inconclusive means that the source gave no clear call. Such entries were picked first, then a sample of the others. The call rests on the fitted dose curve; in most records, active means well fitted inhibition curve with a large enough effect; inconclusive means small, poorly fitted or top-dose-only effect, or another doubt; inactive means no such curve, though single readings can be large or run the other way. Potencies of inconclusive entries are doubtful fits and often do not repeat.

The chains behind the UniProt entries cited, without tags or fusion partners. Where a name states a change or a piece, a line headed by the entry shows the natural chain unless it says otherwise.
UniProt P18054: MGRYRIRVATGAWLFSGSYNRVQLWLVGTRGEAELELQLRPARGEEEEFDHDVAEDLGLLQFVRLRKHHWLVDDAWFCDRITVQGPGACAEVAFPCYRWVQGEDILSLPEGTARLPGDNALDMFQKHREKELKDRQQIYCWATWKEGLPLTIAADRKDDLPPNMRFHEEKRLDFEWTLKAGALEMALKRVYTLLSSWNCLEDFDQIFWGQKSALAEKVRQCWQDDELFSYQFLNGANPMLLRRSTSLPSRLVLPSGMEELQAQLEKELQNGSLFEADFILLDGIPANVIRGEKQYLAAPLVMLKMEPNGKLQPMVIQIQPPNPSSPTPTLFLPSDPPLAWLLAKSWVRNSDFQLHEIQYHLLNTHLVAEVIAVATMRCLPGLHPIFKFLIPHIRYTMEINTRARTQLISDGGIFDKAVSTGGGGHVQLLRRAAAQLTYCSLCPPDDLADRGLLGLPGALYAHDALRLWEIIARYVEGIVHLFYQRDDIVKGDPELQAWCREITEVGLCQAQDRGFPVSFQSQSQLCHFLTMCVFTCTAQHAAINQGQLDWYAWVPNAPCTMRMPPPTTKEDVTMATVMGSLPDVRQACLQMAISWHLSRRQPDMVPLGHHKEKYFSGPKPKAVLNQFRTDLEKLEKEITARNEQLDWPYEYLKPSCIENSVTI

The compounds below were run against Polyunsaturated fatty acid lipoxygenase ALOX12 (Homo sapiens) (UniProt P18054) (assay: Primary qHTS assay for inhibitors of human arachidonate 12S-lipoxygenase (ALOX12): Round 2). Conditions: purified 12hLO, xylenol orange hydroperoxide absorbance; series mostly up to 108 µM.
Outline: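 Hydroperoxide product was detected by ferrous iron/xylenol orange as the 573 to 405 nm absorbance ratio. Arachidonic acid at 40 uM (final) was turned over for 30 min at room temperature by 150 nM human 12hLO, pH 7.0 Hepes buffer, after 15 min compound preincubation.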
Potency means the concentration at half of the fitted maximal effect.

Compound	Potency
Cc1cccc(-c2[nH]c(C(C)(C)C)nc2-c2ccc3nccnc3c2)n1	inactive
COc1ccc(O)c(CN2CCC3(CCC(CNC(=O)c4ccccc4)O3)CC2)c1 (centres undefined)	inconclusive: 112 µM [inhibitor, single point]
COc1cccc(OCCc2c(C)n[nH]c2C)c1	inconclusive: 28.2 µM [inhibitor, partial curve, poor fit]
COc1ccc(CCC(C)NCC2CCCCC2)cc1 (centres undefined)	inactive
O=C(COc1ccc([N+](=O)[O-])cc1Cl)NCCc1ccccc1	inactive
CC1=C(C)[N+](=O)C2CCCCC2N1[O-] (centres undefined)	inactive
COCCn1c(SCC(=O)c2c[nH]c3ccccc23)nc2cc(C(=O)NCC(C)C)ccc2c1=O	inactive
OC(CCN1CCOCC1)(c1ccc(Cl)cc1)C1CCCCC1 (centres undefined)	inconclusive: 100 µM [inhibitor, partial curve, poor fit]
CS(=O)(=O)Oc1ccc2c(c1)O/C(=C\C=C\c1ccccc1)C2=O	inconclusive: 35.5 µM [inhibitor, single point]
CCOC(=O)c1c(C)[nH]c(C(=O)COC(=O)c2cnc(C)cn2)c1C	inconclusive: 39.8 µM [inhibitor, partial curve, poor fit]
CC(C)NC(=O)N1CCCC(c2nnc3n2CCNC3)C1 (centres undefined)	inconclusive: 1.26 µM [inhibitor, full curve, poor fit]
COc1cc(C=C2C(=O)OC(C)(C)OC2=O)cc(Cl)c1OCC(=O)Nc1ccccc1	inconclusive: 50.1 µM [inhibitor, partial curve, poor fit]
O=S(=O)(c1cccc(Cl)c1)c1nnn2c1nc(NC1CCCC1)c1sccc12	inconclusive: 44.7 µM [inhibitor, partial curve, poor fit]
OCCC1CN(Cc2cccn2-c2cccnc2)CCN1C1CCCC1 (centres undefined)	inconclusive: 126 µM [inhibitor, partial curve, poor fit]
N#Cc1c(-c2cccs2)nc(SCc2ccc(Cl)cc2)[nH]c1=O	inconclusive: 31.6 µM [inhibitor, partial curve, poor fit]
c1ccc(-c2cnc(CSc3nnc(-c4ccccc4)o3)o2)cc1	inconclusive: 35.5 µM [inhibitor, partial curve, poor fit]
CCc1ccc(CNC(=O)c2cc3c(s2)-c2ccccc2OC3)cc1	inactive
Cc1nc(N2CCCC2)ncc1C(=O)NCc1ccccc1Cl	inactive
O=C(O)c1ccccc1-c1ncc(-c2ccccc2F)o1	inconclusive: 44.7 µM [inhibitor, partial curve, poor fit]
O=C1NC2(CCCN(Cc3ccsc3)C2)Oc2ccccc21 (centres undefined)	inconclusive: 25.1 µM [inhibitor, full curve]
CC(=O)Nc1nc2c(C)cc(NC(=O)Nc3ccccc3)cc2s1	inconclusive: 56.2 µM [inhibitor, partial curve, poor fit]
O=c1c(O)c(-c2cc(O)c(O)c(O)c2)oc2cc(O)ccc12	inconclusive: 39.8 µM [inhibitor, partial curve, poor fit]

Reprinted at random: three entries already listed.
Compound	Potency
CC1=C(C)[N+](=O)C2CCCCC2N1[O-] (centres undefined)	inactive
Cc1cccc(-c2[nH]c(C(C)(C)C)nc2-c2ccc3nccnc3c2)n1	inactive
c1ccc(-c2cnc(CSc3nnc(-c4ccccc4)o3)o2)cc1	inconclusive: 35.5 µM [inhibitor, partial curve, poor fit]

The list continues.

Compound	Potency
Cc1ccc(Cn2c(C3CCCN3c3nc(-c4ccc(F)cc4)cs3)nc3cc(Cl)c(Cl)cc32)cc1 (centres undefined)	inconclusive: 79.4 µM [inhibitor, partial curve, poor fit]
COc1cccc(NC(=O)c2sc3nc(N4CCOCC4)c4c(c3c2N)CCCC4)c1	inactive
CN(C(=O)C1CCN(c2oc(-c3ccco3)nc2C#N)CC1)c1ccccc1	inconclusive: 35.5 µM [inhibitor, partial curve, poor fit]
O=c1c2ccccc2cnn1Cc1coc(-c2ccc(Cl)cc2)n1	inactive
CC1(C)Nc2cccc3cccc(c23)N1	inconclusive: 50.1 µM [inhibitor, partial curve, poor fit]
CCc1cccc(C)c1Nc1c(-c2cccc(O)c2)nc2sccn12	inconclusive: 50.1 µM [inhibitor, partial curve, poor fit]
COc1ccc(CC(=O)Nc2sc3c(c2C(=O)Nc2ccc(C)cc2)CCCCC3)cc1	inconclusive: 112 µM [inhibitor, single point]
Cc1cc(C)nc(SCC(=O)NNS(=O)(=O)c2ccc(C#N)cc2)n1	inconclusive: 112 µM [inhibitor, partial curve, poor fit]
Cc1cc2c(c(/C=C/C(=O)c3ccccc3)c1)OC1(C=C2)Oc2ccccc2C(=O)N1C (centres undefined)	inconclusive: 89.1 µM [inhibitor, partial curve, poor fit]
CN1C[C@@H](NS(=O)(=O)c2ccc(C#N)cc2)C[C@H]1c1nc(-c2ccc(Cl)cc2)no1	inconclusive: 5.62 µM [inhibitor, full curve]
CCNC(=O)Oc1ccc[nH]c1=O	inconclusive: 44.7 µM [inhibitor, partial curve, poor fit]
CC(Oc1cccc(Cl)c1)C(=O)OCc1nc(N)nc(Nc2ccccc2)n1 (centres undefined)	inactive
O=C(N/N=C/c1ccccn1)c1ccc(Br)o1	inactive
Cc1ccc(S(=O)(=O)N2CCN(C(=O)c3ccc(Br)o3)CC2)c(C)c1	inconclusive: 112 µM [inhibitor, single point]
C/C=N/NC(=O)c1cc(Br)ccc1O	inactive
O=C1Cc2cc(C(=O)CSc3nnc(-c4ccncc4)o3)c(Cl)cc2N1	inconclusive: 44.7 µM [inhibitor, single point]
COc1ccc(C2/C(=C(\O)c3ccc4c(c3)CC(C)O4)C(=O)C(=O)N2Cc2cccnc2)c(OC)c1 (centres undefined)	active: 11.2 µM
CC(=O)N1CCC(Cc2ccc(C(=O)Nc3ccc(C)cc3)cc2)CC1	inactive
CN(CC1CCCN(CCc2ccc(Cl)cc2)C1)C(=O)c1ccc(-n2cnnn2)cc1 (centres undefined)	inconclusive: 100 µM [inhibitor, single point]
C=CCc1cc(OC)ccc1OCC(O)CN1CCN(c2ccc(OC)cc2)CC1 (centres undefined)	active: 35.5 µM and inconclusive: 56.2 µM [inhibitor, partial curve, poor fit]
CC(=O)n1cc([C@@H]2C=C(C(=O)N3CCN(Cc4ccc5c(c4)OCO5)CC3)O[C@H](OCCCCO)C2)c2ccccc21	inactive
O=C(Cn1ncc2c3ccccc3n(Cc3ccc(Cl)cc3)c2c1=O)NC1CCCCCC1	inconclusive: 50.1 µM [inhibitor, partial curve, poor fit]

Compound	Potency
COc1ccccc1NC(=O)C(=O)NCC(c1ccco1)N1CCc2ccccc2C1 (centres undefined)	inconclusive: 31.6 µM [inhibitor, partial curve, poor fit]
Cc1cccc(C)c1NC(=O)CN(C)C(=O)Cc1csc(-c2cccc(Br)c2)n1	inactive
COc1ccc(CCNC(=O)CN2C(=O)COc3ccc(S(=O)(=O)N4CCCCCC4)cc32)cc1OC	inactive
C/C=C/c1ccc(OCCCn2cncn2)c(OC)c1	inconclusive: 1.41 µM [inhibitor, full curve, poor fit]
CC1=C(C(=O)Nc2ccccc2C)C(c2ccco2)C(C#N)=C(SCC(=O)c2ccc(F)cc2)N1 (centres undefined)	inconclusive: 1.78 µM [inhibitor, full curve, poor fit]
[O-]/[N+](=C\c1cccc(Br)c1)c1ccccc1	inconclusive: 44.7 µM [inhibitor, partial curve, poor fit]
CC(=O)c1cccc(NC(=O)c2ccc3c(Cl)c4c(nc3c2)CCCC4)c1	inactive
COC(=O)CN1C(=S)N(c2ccc(Cl)cc2)C(=O)C1CC(=O)Nc1ccc(F)cc1 (centres undefined)	inconclusive: 50.1 µM [inhibitor, partial curve, poor fit]
Cc1nc(-c2ccc(NC(=O)c3ccc(Br)o3)cc2)cs1	inconclusive: 89.1 µM [inhibitor, single point]
CC(CO)Nc1nc2c(c(=O)n(Cc3ccccc3Cl)c(=O)n2C)n1C (centres undefined)	inactive
CC1(c2ccccc2)N(Cc2ccccc2)C(=O)OC12CCN(Cc1ccc(O)cc1)CC2 (centres undefined)	inconclusive: 89.1 µM [inhibitor, single point]
N#Cc1c(NC(=O)CSc2nc3ccc(Cl)cc3[nH]2)sc2c1CCC2	inconclusive: 50.1 µM [inhibitor, partial curve, poor fit]
CCOc1ccccc1NC(=O)Cc1cccs1	inconclusive: 63.1 µM [inhibitor, partial curve, poor fit]
CC[C@@]1(O)C(=O)OCc2c1cc1n(c2=O)Cc2cc3cc(O)ccc3nc2-1	inconclusive: 43.2 µM [inhibitor, single point]
CCn1c(=S)sc2nc(C)sc21	inconclusive: 39.8 µM [inhibitor, partial curve, poor fit]
CC(C)c1ccccc1OCCCCCN1CCOCC1	inconclusive: 0.447 µM [inhibitor, full curve, poor fit]
COc1ccc(/C=N/NC(=O)c2cc(O)c(O)c(O)c2)cc1Cn1cc([N+](=O)[O-])cn1	inconclusive: 44.7 µM [inhibitor, partial curve, poor fit]
CCCCN(Cc1ccccc1)c1ccc(NS(=O)(=O)c2cccc(F)c2)cc1C(=O)O	inconclusive: 35.5 µM [inhibitor, partial curve, poor fit]
O=C(CN1CC[n+]2c(-c3ccccc3)csc21)c1ccc(Br)cc1	inconclusive: 0.562 µM [inhibitor, full curve, poor fit]
Cc1ccc(NC(=S)NNC(=O)CSc2nnc(-c3ccc(Cl)cc3)n2C2CCCCC2)cc1	inconclusive: 79.4 µM [inhibitor, partial curve, poor fit]

3 entries from above, arranged by number of heavy atoms, high to low.
Compound	Potency
CC1(c2ccccc2)N(Cc2ccccc2)C(=O)OC12CCN(Cc1ccc(O)cc1)CC2 (centres undefined)	inconclusive: 89.1 µM [inhibitor, single point]
C/C=C/c1ccc(OCCCn2cncn2)c(OC)c1	inconclusive: 1.41 µM [inhibitor, full curve, poor fit]
[O-]/[N+](=C\c1cccc(Br)c1)c1ccccc1	inconclusive: 44.7 µM [inhibitor, partial curve, poor fit]
